About 180 (8.6%) of roughly 2,100 compounds showed an effect of 50% or more. Some of the results follow.

The subject of this assay is MOLM1 and UCSD/AML1 (averaged). In words: cell viability relative to DMSO control (POC); higher = less growth inhibition. The conditions noted are these: 1 µM; 72 h. As for the experimental part:
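Primary viability screen in the 3q26 EVI1-high AML cell lines MOLM1 and UCSD/AML1 (1.5e3 cells/well, 384-well), compounds at 1 uM for 72 h. ATP CellTiter-Glo read-out given as percent of viable cells over DMSO control (POC), averaged over duplicates. DMSO was the negative control and 5 uM etoposide the positive control. This mapping covers the MicroSource Spectrum and Selleck anticancer libraries (drug names).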
For `CNS(=O)(=O)c1ccc(NC(=O)c2ccccc2C(=O)O)cc1`, the cell viability (in general, a read-out of living cells in per cent, often relative to untreated cells) was found to be 110%.

Regarding `O=C(CCCCCCC(=O)Nc1ccccc1)NO` [Vorinostat (SAHA)], the cell viability worked out at 22%.

For `CC[C@H]1OC(=O)C[C@@H](O)[C@H](C)[C@@H](O[C@@H]2O[C@H](C)[C@@H](O[C@H]3C[C@@](C)(O)[C@@H](O)[C@H](C)O3)[C@H](N(C)C)[C@H]2O)[C@@H](CC=O)C[C@@H](C)C(=O)/C=C/C(C)=C/[C@@H]1CO[C@@H]1O[C@H](C)[C@@H](O)[C@@H](OC)[C@H]1OC`, the cell viability came out at 96.4%.

Take `COc1ccc(S(=O)(=O)Nc2cccnc2Nc2ccc(O)cc2)cc1`: the cell viability amounted to 49.4%.

Take `CC1(C)O[C@@H]2C[C@H]3[C@@H]4CCC5=CC(=O)C=C[C@]5(C)[C@H]4[C@@H](O)C[C@]3(C)[C@]2(C(=O)CO)O1`: the cell viability was determined as 65.4%.

As to `O=C(O)c1ccc2c(c1)nc(Nc1cccc(Cl)c1)c1ccncc12` [cx-4945 (Silmitasertib)], the cell viability was 80.5%.

Turning to `O=C(O)Cc1cc(I)c(Oc2cc(I)c(O)c(I)c2)c(I)c1`, the cell viability is 97.8%.

Consider `CCN(CC)CCOc1ccc2c(c1)C(=O)c1cc(OCCN(CC)CC)ccc1-2`, for which the cell viability was determined as 88.6%.

On to `C=C[C@@]1(C)CC(=O)[C@]2(O)[C@@]3(C)[C@@H](O)CCC(C)(C)[C@@H]3[C@H](O)[C@H](OC(C)=O)[C@@]2(C)O1`, for which the cell viability was 98.2%.

Turning to `CN(Cc1cnc2nc(N)nc(N)c2n1)c1ccc(C(=O)NC(CCC(=O)O)C(=O)O)cc1` (racemic), the cell viability amounted to 94.3%.

On to `CCN(CC)C(=S)SSC(=S)N(CC)CC` [Disulfiram (Antabuse)], for which the cell viability is 1.33%.

Turning to `CCN(CC)C(=S)SSC(=S)N(CC)CC`, the cell viability turned out to be 5.82%.

For `COc1cc2/c(=N/c3ccc(Br)cc3F)nc[nH]c2cc1OCC1CCN(C)CC1` [Vandetanib (Zactima)], the cell viability stood at 51%.

On to `O=c1cc(-c2ccccc2)oc2cc(O)cc(O)c12`, for which the cell viability turned out to be 83.4%.

`Cc1c(C(=O)O)c(O)cc2c1C(=O)c1c(O)c([C@@H]3O[C@H](CO)[C@@H](O)[C@H](O)[C@H]3O)c(O)c(O)c1C2=O`: the cell viability was 92.5%.

With `O=C1CN(/N=C/c2ccc([N+](=O)[O-])o2)C(=O)N1`, the cell viability worked out at 97.4%.

Turning to `c1ccc2c(c1)CN1CCCC1=N2`, the cell viability came out at 85.3%.

On to `Cc1ccccc1OCC(O)CO` (stereo not drawn), for which the cell viability is 97.9%.

In the case of `C[C@H](N)[C@H](O)c1cccc(O)c1`, the cell viability was 107%.

Consider `CC1(C)S[C@@H]2[C@H](NC(=O)C(C(=O)O)c3ccccc3)C(=O)N2[C@H]1C(=O)O` (stereo partly drawn), for which the cell viability amounted to 116%.

With `CCN(CC)CCOC(=O)C(Cc1cccc2ccccc12)CC1CCCO1` (stereo not drawn), the cell viability worked out at 103%.

Consider `C=C[C@@H](C1=CC(=O)C(OC)=C(OC)C1=O)c1ccccc1`, for which the cell viability came out at 8.05%.

`O=C1CN(/N=C/c2ccc(-c3ccc([N+](=O)[O-])cc3)o2)C(=O)N1`: the cell viability stood at 102%.

For the compound `COc1cc(O)c2c(c1)C(=O)c1cc(C)cc(O)c1C2=O`, the cell viability came to 94.9%.

For `CCOC(=O)n1ccn(C)c1=S`, the cell viability was determined as 109%.

Consider `CC1(C)S[C@@H]2[C@H](NC(=O)[C@H](C(=O)O)c3ccsc3)C(=O)N2[C@H]1C(=O)O`, for which the cell viability came out at 112%.

On to `CN[C@@H]1[C@@H](O)[C@@H](O[C@@H]2[C@@H](O)[C@H](O[C@H]3OC(CN)=CC[C@H]3N)[C@@H](N)C[C@H]2N)OC[C@]1(C)O`, for which the cell viability was 105%.

In the case of `Cc1cc(NS(=O)(=O)c2ccc(N)cc2)no1`, the cell viability amounted to 101%.

With `NCCCC(O)(P(=O)(O)O)P(=O)(O)O`, the cell viability worked out at 90.4%.

Consider `CNC[C@H](O)[C@@H](O)[C@H](O)[C@H](O)CO`, for which the cell viability was 103%.

Take `Nc1ccc(S(=O)(=O)Nc2cnc3ccccc3n2)cc1`: the cell viability was found to be 97.1%.

On to `COC(=O)Nc1ccc(-c2nc(N3CCOCC3)c3cnn(C4CCN(C(=O)OC)CC4)c3n2)cc1`, for which the cell viability came out at 25.9%.

With `CCCCC/C=C/CCC(=O)N[C@H]1[C@H](Oc2c3cc4cc2Oc2ccc(cc2Cl)[C@@H](O[C@@H]2O[C@H](CO)[C@@H](O)[C@H](O)[C@H]2NC(C)=O)[C@@H]2NC(=O)[C@H](NC(=O)[C@@H]4NC(=O)[C@H]4NC(=O)C(Cc5ccc(c(Cl)c5)O3)NC(=O)[C@H](N)c3ccc(O)c(c3)Oc3cc(O)cc4c3)c3ccc(O)c(c3)-c3c(OC4O[C@H](CO)[C@@H](O)[C@H](O)[C@@H]4O)cc(O)cc3[C@@H](C(=O)O)NC2=O)O[C@H](CO)[C@@H](O)[C@@H]1O` (stereo partly drawn) [TEICOPLANIN [A(2-1) shown]], the cell viability was found to be 101%.

As to `O=c1c(O)c(-c2ccccc2)oc2cccc(O)c12`, the cell viability amounted to 93.1%.

As to `Cc1ccnc(NS(=O)(=O)c2ccc(N)cc2)n1`, the cell viability came out at 98.5%.

Regarding `NC(=O)OCC(COC(N)=O)c1ccccc1`, the cell viability came to 89.9%.

As for `CC(C)n1c(/C=C/C(O)CC(O)CC(=O)O)c(-c2ccc(F)cc2)c2ccccc21` (stereo not drawn) [Fluvastatin sodium (Lescol)], the cell viability was found to be 64.2%.

As to `CCCCNc1cc(C(=O)O)cc(S(N)(=O)=O)c1Oc1ccccc1`, the cell viability worked out at 100%.

As for `CC(=O)Oc1ccccc1C(=O)Oc1ccccc1C(=O)O`, the cell viability was 114%.

On to `CCN(CC)CCOC(=O)c1ccc(N)cc1`, for which the cell viability was 99.1%.

As for `CC[C@H](C)C(=O)O[C@H]1C[C@@H](C)C=C2C=C[C@H](C)[C@H](CC[C@@H]3C[C@@H](O)CC(=O)O3)[C@H]21`, the cell viability was determined as 86.5%.

Take `CC(=O)N[C@@H](CS)C(=O)O`: the cell viability worked out at 99.9%.

For `C[C@]1(c2nc3c(C(N)=O)cccc3[nH]2)CCCN1` [ABT-888 (Veliparib)], the cell viability turned out to be 101%.

With `CC(=O)O[C@H]1C[C@@]2(C)[C@@H](C[C@@H](O)[C@H]3[C@@]4(C)CC[C@@H](O)[C@@H](C)[C@@H]4CC[C@@]32C)/C1=C(\CCC=C(C)C)C(=O)O`, the cell viability is 97.4%.

Take `O=C(O)Cc1cccc(OCCCN(Cc2cccc(C(F)(F)F)c2Cl)CC(c2ccccc2)c2ccccc2)c1`: the cell viability was 91.2%.

For `O=c1cc(-c2ccccc2)oc2cc(O)c(O)c(O)c12`, the cell viability was determined as 86%.

For the compound `CC(C)CCCC(C)N` (stereo not drawn), the cell viability was found to be 95.1%.

`COc1cc(C2Oc3cc([C@H]4Oc5cc(O)cc(O)c5C(=O)[C@@H]4O)ccc3OC2CO)ccc1O` (stereo partly drawn): the cell viability was 92.4%.

In the case of `CCCCCC(=O)O[C@]1(C(C)=O)CC[C@H]2[C@@H]3CCC4=CC(=O)CC[C@]4(C)[C@H]3CC[C@@]21C`, the cell viability is 102%.

Take `O=C(O[C@@H]1Cc2c(O)cc(O)cc2O[C@@H]1c1ccc(O)c(O)c1)c1cc(O)c(O)c(O)c1`: the cell viability stood at 96.5%.

For the compound `OC(c1cc(C(F)(F)F)nc2c(C(F)(F)F)cccc12)C1CCCCN1` (stereo not drawn), the cell viability was 98.3%.

Regarding `CNCCCC12CCC(c3ccccc31)c1ccccc12`, the cell viability turned out to be 103%.

On to `CC[C@H]1OC(=O)C[C@@H](O)[C@H](C)[C@@H](O[C@@H]2O[C@H](C)[C@@H](O)[C@H](N(C)C)[C@H]2O)[C@@H](CCN2C[C@H](C)C[C@H](C)C2)C[C@@H](C)C(=O)/C=C/C(C)=C/[C@@H]1CO[C@@H]1O[C@H](C)[C@@H](O)[C@@H](OC)[C@H]1OC`, for which the cell viability was 91%.

`CC1(C)O[C@@H]2C[C@H]3[C@@H]4CCC5=CC(=O)CC[C@]5(C)[C@@]4(F)[C@@H](O)C[C@]3(C)[C@]2(C(=O)CCl)O1`: the cell viability turned out to be 69.8%.

With `C[C@]12C=CC(=O)C=C1CC[C@H]1[C@@H]3C[C@@H](O)[C@](O)(C(=O)CO)[C@@]3(C)C[C@H](O)[C@@]12F`, the cell viability was 75.7%.

As for `C[C@@H]1O[C@@H](OC[C@H]2O[C@@H](Oc3c(-c4ccc(OCCO)c(OCCO)c4)oc4cc(OCCO)cc(O)c4c3=O)[C@H](O)[C@@H](O)[C@@H]2O)[C@H](O)[C@H](O)[C@H]1O`, the cell viability was 116%.

In the case of `Cc1cc(C)cc(OCC2CNC(=O)O2)c1` (stereo not drawn), the cell viability stood at 91.3%.

As to `CC(=O)O[C@H]1C[C@@H]2CC[C@@H]3[C@H](CC[C@@]4(C)[C@H]3C[C@H]([N+]3(C)CCCCC3)[C@@H]4OC(C)=O)[C@@]2(C)C[C@@H]1N1CCCCC1`, the cell viability worked out at 94.6%.

In the case of `COc1ccc(C(=O)O)c(O)c1OC`, the cell viability was 97.8%.

Regarding `O=c1c(-c2ccc(O)cc2)coc2cc(O)ccc12`, the cell viability was determined as 93.7%.

Consider `C=C1[C@@H]([C@@]2(C)C=CC(=O)C(C)(C)[C@@H]2CC(=O)OC)CC[C@@]2(C)[C@H](c3ccoc3)OC(=O)[C@H]3O[C@]132`, for which the cell viability was 102%.

For `CN1C(=O)OC(C)(C)C1=O`, the cell viability is 93.2%.

`CN(C)CCCSC(=N)N`: the cell viability was found to be 117%.

`NCCNCCNCCN`: the cell viability turned out to be 116%.

On to `C/C(=C\C(=O)Nc1ccccc1C(=O)O)c1ccc2ccccc2c1`, for which the cell viability was 104%.

With `O=C(CCc1ccc(O)cc1)c1c(O)cc(O)cc1O[C@@H]1OC(CO)[C@@H](O)[C@@H](O)C1O` (stereo partly drawn), the cell viability stood at 104%.

For the compound `COc1c(C)c2c(c(O)c1C/C=C(\C)CCC(=O)O)C(=O)OC2` [Mycophenolic (Mycophenolate)], the cell viability was 42.4%.

For the compound `COc1c(C)c2c(c(O)c1C/C=C(\C)CCC(=O)O)C(=O)OC2`, the cell viability is 44%.

On to `O=C(O)c1ccc(S(=O)(=O)N(Cl)Cl)cc1`, for which the cell viability is 101%.

As to `O=C(Oc1ccccc1C(=O)O)c1ccccc1O`, the cell viability came out at 104%.

For the compound `CC(C)c1ccc2c(c1)CC[C@H]1[C@](C)(CN)CCC[C@]21C`, the cell viability turned out to be 94.4%.

Consider `CCN1CCCC(OC(=O)C(c2ccccc2)c2ccccc2)C1` (stereo not drawn), for which the cell viability is 98.7%.

Consider `Nc1ccc(C(=O)O)cc1`, for which the cell viability came to 101%.

As to `COC(=O)C[C@H]1C(C)(C)[C@@H](OC(C)=O)[C@@H]2CC3=C4CC(=O)O[C@@H](c5ccoc5)[C@]4(C)CC[C@@H]3[C@@]1(C)C2=O`, the cell viability was determined as 103%.

Regarding `CO[C@H]1C[C@@H]2CC[C@@H](C)[C@@](O)(O2)C(=O)C(=O)N2CCCC[C@H]2C(=O)O[C@H]([C@H](C)C[C@@H]2CC[C@@H](O)[C@H](OC)C2)CC(=O)[C@H](C)/C=C(\C)[C@@H](O)[C@@H](OC)C(=O)[C@H](C)C[C@H](C)/C=C/C=C/C=C/1C`, the cell viability came to 44%.

For the compound `CO[C@H]1C[C@@H]2CC[C@@H](C)[C@@](O)(O2)C(=O)C(=O)N2CCCC[C@H]2C(=O)O[C@H]([C@H](C)C[C@@H]2CC[C@@H](O)[C@H](OC)C2)CC(=O)[C@H](C)/C=C(\C)[C@@H](O)[C@@H](OC)C(=O)[C@H](C)C[C@H](C)/C=C/C=C/C=C/1C` [Rapamycin (Sirolimus)], the cell viability amounted to 41.5%.

In the case of `Cc1nc(C)c(Cl)c(O)c1Cl`, the cell viability was 108%.

`CCN(CC)CCCC(C)Nc1c2ccc(Cl)cc2nc2ccc(OC)cc12` (stereo not drawn): the cell viability was 94.2%.
